Results published in PubChem BioAssay AID504834 (National Center for Advancing Translational Sciences (NCATS), 2011).
The whole screen tested about 320,000 compounds, of which about 22,000 (6.9%) were called active. Inconclusive results, whose numbers are uncertain, are shown with a selection of clear calls. Calls follow the shape of the dose curve; as a rule, active = well fitted inhibition curve with a large enough effect; inconclusive = small, poorly fitted or top-dose-only effect, or another doubt; inactive = no such curve, though single readings can be large or run the other way. A potency beside an inconclusive call is a rough fit, not a confirmed value.

assay: Primary qHTS for delayed death inhibitors of the malarial parasite plastid, 96 hour incubation; details: P. falciparum luciferase reporter growth; series mostly up to 28.7 µM
Outline: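 P. falciparum expressing integrated firefly luciferase grown in erythrocytes (2% hematocrit, 0.05% parasitemia final) with compounds for 96 hours at 37 C, 5% CO2. Growth inhibition read as loss of luminescence after adding luciferase detection reagent.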
% is scaled to controls: 0 for no effect and ±100 for the full control effect; potency is read from the fitted curve at half-maximal effect.

For `Cc1ccc(S(=O)(=O)Nc2ccc(S(=O)(=O)NCC3CCCO3)cc2)cc1` (stereo not given), which Potency is on record?
The Potency was “inactive”.

For `Cc1ccc([N+](=O)[O-])c2c1C(N1CCCCC1)C(C)(C)O2` (stereo not given), which Potency is on record?
The Potency was inconclusive: 0.586 µM [inhibitor, full curve, poor fit].

For `COc1ccc(-n2c(C)cc(C(=O)COC(=O)c3cc(OC)c(OC)cc3NC(=O)c3cccs3)c2C)cc1`, which Potency is on record?
Its Potency is active: 2.62 µM.

Which Potency does the source give for `COc1cccc(CNC(=O)CN2C(=O)NC(c3ccccc3)(c3ccccc3)C2=O)c1` here?
Its Potency is “inactive”.

For `CCN(CC(O)c1cccc(O)c1)C(=O)C12CC3CC(CC(C3)C1)C2` (stereo not given), which Potency is on record?
Its Potency is inconclusive: 0.928 µM [inhibitor, full curve].

Which Potency does the source give for `CCC(NS(=O)(=O)c1ccc(C)cc1)C(=O)N1CCOCCOCCOCC1` (stereo not given) here?
Its Potency is inconclusive: 8.28 µM [inhibitor, partial curve].

For `CCN(CC)S(=O)(=O)c1ccc(NC(=O)C2CCCN(C(=O)c3ccc(Cl)cc3)C2)cc1` (stereo not given), which Potency is on record?
The Potency was inconclusive: 7.38 µM [inhibitor, partial curve].

For `CS(=O)(=O)N(CC(=O)Nc1ccc(S(=O)(=O)N2CCCC2)cc1)c1ccccc1F`, which Potency is on record?
The Potency was inconclusive: 18.5 µM [inhibitor, single point].

With `CC(C)CC(CO)N1CCN(C(=O)c2ccc(C(C)(C)C)cc2)CCC1=O` (stereo not given) as the molecule, how does the Potency read?
The Potency was “inactive”.

Which Potency does the source give for `COc1ccc(OC)c(/C=N\NC(=O)CSc2nnc(CCCc3ccc(OC)c(C)c3)o2)c1` here?
The Potency was inconclusive: 0.37 µM [inhibitor, partial curve, poor fit].

With `CC(C)(C)CC(C)(C)NC(=S)NC1CCN(Cc2ccccc2)CC1` as the molecule, how does the Potency read?
Its Potency is inconclusive: 11.7 µM [inhibitor, single point].

With `CCCCC1(CCCC)NC(=S)N(Nc2ccc(C)cc2)C1=O` as the molecule, how does the Potency read?
Its Potency is inconclusive: 11.7 µM [inhibitor, single point].

Which Potency does the source give for `COc1cc(CN2CCCC(CO)(Cc3ccccc3C)C2)cc2c1OCO2` (stereo not given) here?
Its Potency is inconclusive: 13.1 µM [inhibitor, single point].

For `C[C@H]1CC[C@@]2(O[C@H](CCO)C[C@@H](O)[C@@H]2O)O1`, which Potency is on record?
Its Potency is “inactive”.

With `Nn1c(=O)[nH]c2c([nH]c3ccccc32)c1=O` as the molecule, how does the Potency read?
The Potency was inconclusive: 7.38 µM [inhibitor, partial curve].

Which Potency does the source give for `O=C(NC1CC1)c1cc2c(F)cccc2s1` here?
Its Potency is “inactive”.

With `O=C(O)c1ccc(S(=O)(=O)N(Cc2cccs2)CC2CCCO2)cc1` (stereo not given) as the molecule, how does the Potency read?
Its Potency is inconclusive: 0.329 µM [inhibitor, full curve].

Which Potency does the source give for `Cc1ccc(NC(=O)C(c2ccccc2)N2CCN(C(=O)c3ccco3)CC2)cc1Cl` (stereo not given) here?
Its Potency is inconclusive: 11.7 µM [inhibitor, partial curve, poor fit].

Which Potency does the source give for `COc1ccc(Nc2nc(-c3ccccc3O)nc3ccccc23)cc1` here?
The Potency was inconclusive: 18.5 µM [inhibitor, single point].

For `Cc1ccc(S(=O)(=O)NCc2ccc(C(=O)NCCCN3CCC(Cc4ccccc4)CC3)cc2)cc1`, which Potency is on record?
Its Potency is inconclusive: 10.4 µM [inhibitor, single point].

For `CN(C)S(=O)(=O)c1cc(NC(=O)COC(=O)Cc2ccccc2)ccc1Cl`, which Potency is on record?
The Potency was inconclusive: 8.28 µM [inhibitor, partial curve, poor fit].

With `COc1ccc(OC)c(NC(=O)CCC(=O)Oc2ccc(C)cc2)c1` as the molecule, how does the Potency read?
The Potency was inconclusive: 2.62 µM [inhibitor, partial curve].

Which Potency does the source give for `O=C(c1ccco1)N1CCN(S(=O)(=O)Cc2ccccc2Cl)CC1` here?
The Potency was inconclusive: 10.4 µM [inhibitor, single point].

Which Potency does the source give for `Brc1ccc2c(c1)C(c1cccnc1)=NNC(c1cccs1)=N2` here?
Its Potency is inconclusive: 16.5 µM [inhibitor, single point].

Which Potency does the source give for `Cc1sc2ccccc2[n+]1CCC(C)S(=O)(=O)[O-]` (stereo not given) here?
Its Potency is inconclusive: 13.1 µM [inhibitor, single point].

For `COc1ccc(C(C[N+](=O)[O-])c2c(C)[nH]c3ccccc23)cc1OC` (stereo not given), which Potency is on record?
The Potency was inconclusive: 2.94 µM [inhibitor, single point].

Which Potency does the source give for `O=C(Nc1ccccc1)c1cc2ccc3ccccc3c2s1` here?
The Potency was “inactive”.

With `CC1=C(C(N)=O)C(c2cccs2)n2nc(-c3cccc(C)c3)nc2N1` (stereo not given) as the molecule, how does the Potency read?
The Potency was active: 10.4 µM.

Which Potency does the source give for `Cc1noc(C)c1C1(O)CCCCCCCCCCC1` here?
The Potency was inconclusive: 18.5 µM [inhibitor, single point].

Which Potency does the source give for `COc1cc2c(cc1OC)CN(C(=O)c1ccc3[nH]c(C)c(C)c3c1)CC2` here?
The Potency was “inactive”.

For `CSc1ccccc1C(=O)Nc1ncn[nH]1`, which Potency is on record?
Its Potency is inconclusive: 13.1 µM [inhibitor, single point].

With `CC(C)n1c(=O)c(C=Nc2ccc(Br)cc2)c(O)n(Cc2ccco2)c1=O` as the molecule, how does the Potency read?
The Potency was active: 10.4 µM.

With `O=S(=O)(c1cccc2cnccc12)N1CCCNCC1` as the molecule, how does the Potency read?
The Potency was inconclusive: 13.5 µM [inhibitor, single point].

For `Oc1cccc(/C=N/N(Cc2ccccc2)c2ccccc2)c1`, which Potency is on record?
Its Potency is inconclusive: 3.7 µM [inhibitor, full curve, poor fit].

For `O=C(O)CSc1ccc2ccccc2n1`, which Potency is on record?
Its Potency is inconclusive: 0.415 µM [inhibitor, partial curve, poor fit].

For `CC(C)SC1=NC(C)(C)C=C(/C=C/c2ccc(Cl)cc2Cl)N1`, which Potency is on record?
Its Potency is inconclusive: 1.17 µM [inhibitor, partial curve, poor fit].

For `O=C(c1ccc(F)cc1)N1CCN(Cc2ccccc2)CC1`, which Potency is on record?
The Potency was “inactive”.

For `CC(C(=O)NCc1ccco1)n1nc(-c2ccccc2)c2cc(Cl)ccc21` (stereo not given), which Potency is on record?
Its Potency is inconclusive: 18.5 µM [inhibitor, single point].

With `CCOC(=O)CSc1nc(C(C)(C)C)nc2ccccc12` as the molecule, how does the Potency read?
Its Potency is “inactive”.

For `O=C(O)CCC(=O)N1N=C(c2ccccc2)CC1c1ccc2nccnc2c1` (stereo not given), which Potency is on record?
Its Potency is “inactive”.

Which Potency does the source give for `CCOc1ccccc1/C=C(/NC(=O)c1ccccc1)C(=O)NCC(=O)O` here?
The Potency was “inactive”.

For `CCOc1ccc(C(=O)COC(=O)c2nc3nccc(C)n3n2)cc1`, which Potency is on record?
Its Potency is “inactive”.

For `CCC1(COC(=O)Nc2cccc(Cl)c2)COC1`, which activity change, negative = inhibition is on record?
Its activity change, negative = inhibition is inactive: 16.3% [at 5.75 µM].

With `CCSC1=C(C#N)C(CC(C)C)C2=C(CCCC2=O)N1` (stereo not given) as the molecule, how does the Potency read?
The Potency was inconclusive: 2.94 µM [inhibitor, single point].

With `CCOC(=O)N1CCN(c2nc(-c3ccc(Cl)cc3)cs2)CC1` as the molecule, how does the Potency read?
Its Potency is inconclusive: 0.522 µM [inhibitor, full curve, poor fit].
